Changes are numbered by the printed parent chain. Results are given in words; binding and its absence hold for the method and conditions named. Some entries that bind do so weakly or less than the wild type.
B1: SC17.34 (antibody, V domains shown)
VH: EVQLQQSGPELVKPGSSVKISCKASGYTFTDYNMDWVKQSHGKRLEWIGYIYPDNGGAGYNQKFKGKATLTVDKSSSTAYMELRSLTSEDSAVYYCSRSITTAWFAYWGQGTLVTVSA
VL: DIKMTQSPSSMYASLGERVTITCKASQDINSYLSWFQQKPGKSPKTLIYRANRLVDGVPSRFSGSGSGQDYSLTISSLEYEDMGIYYCLQYDEFPPTFGGGTKLEIK
B2: SC17.17 (antibody, V domains shown)
VH: EVQLQQSGPEVMKPGASVKMSCKASGYTFTDYNMHWVKQNQGKSLEWIGEINPNIGGTGYNQKFKGKATLTVHKSSSTAYMELRSLTSEDSAVYYCARTYSYYSYEFAYWGQGTLVTVSA
VL: QIVLTQSPAIMSASPGEKVTMTCSASSSVSYMHWYQQKSGTSPKRWIYDTSKLPSGVPARFSGSGSGTSYSLTISSMEAEDAATYYCQQWSSTPPTFGAGTKLELK
B3: SC17.24 (antibody, V domains shown)
VH: QVQLQQSDAELVKPGASVKISCKVSGYTFTDHTIHWMKQRPEQGLEWIGYIYPRDGSTKYNEEFKGKATLTADKSSSTAYMQLNSLTSEDSAVYFCARSYSNYFDYWGQGTTLTVSS
VL: DIVMSQSPSSLAVSVGEKVTMSCKSSQSLLYSSNQKSYLAWYQQKPGQSPKLLIYWASTRESGVPDRFTGSGSGTDFTLTISSVQAEDLAVYYCKQSYNLRTFGGGTKLEIK
B4: SC17.140 (antibody, V domains shown)
VH: EVQLQQSGPELMKPGASVKMSCKASGYTFTDYNMHWVKQNQGKSLEWIGEINPNTGGTGYNQKFKGKATLTVDKFSSTAFIELRSLTSEDSAIYYCTRGGYDHYWYFDVWGAGTTVTVSS
VL: B2 VL with P54A, A99S, L105I
B5: hSC17.16 (antibody, human IgG1, V domains shown)
VH: QVQLVQSGAEVKKPGASVKVSCKASGYTFTDYNMYWVRQAPGQGLEWMGEINPNNGGTAYNQKFRGKVTMTRDTSISTAYMELSRLRSDDTAVYYCARYDKGFDYWGQGTTVTVSS
VL: DIQMTQSPSSLSASVGDRVTITCRASANINSNLVWYQQKPGKAPKLLIYAATNLADGVPSRFSGSGSGTDFTLTISSLQPEDFATYYCQHFWGTPRTFGGGTKLEIK
B6: hSC17.17 (antibody, human IgG1, V domains shown)
VH: QVQLVQSGAEVKKPGASVKVSCKASGYTFTDYNMHWVRQAPGQGLEWMGEINPNIGGTGYNQKFKGRVTMTRDTSISTAYMELSRLRSDDTAVYYCARTYSYYSYEFAYWGQGTLVTVSS
VL: EIVLTQSPATLSLSPGERATLSCSASSSVSYMHWYQQKPGQAPRLLIYDTSKLPSGIPARFSGSGSGTDFTLTISSLEPEDFAVYYCQQWSSTPPTFGQGTKLEIK
B7: hSC17.28 (antibody, human IgG1, V domains shown)
VH: QVQLVQSGAEVKKPGASVKVSCKASGYTFTRSYIHWVRQAPGQGLEWMGYISSGSGGTTYNQKFKGRVTSTRDTSISTAYMELSRLRSDDTAVYYCARGGVRYFDVWGQGTTVTVSS
VL: EIVLTQSPDFQSVTPKEKVTITCRASQSIGTSIHWYQQKPDQSPKLLIKYASESISGVPSRFSGSGSGTDFTLTINSLEAEDAATYYCQQSNSWPLTFGQGTKLEIK
B8: hSC17.34 (antibody, human IgG1, V domains shown)
VH: QVQLVQSGAEVKKPGASVKVSCKASGYTFTDYNMDWVRQAPGQRLEWIGYIYPDNGGAGYNQKFKGRVTITVDTSASTAYMELSSLRSEDTAVYYCSRSITTAWFAYWGQGTLVTVSS
VL: DIQMTQSPSSLSASVGDRVTITCKASQDINSYLSWFQQKPGKAPKSLIYRANRLVDGVPSRFSGSGSGTDYTLTISSLQPEDFATYYCLQYDEFPPTFGQGTKLEIK
B9: hSC17.46 (antibody, human IgG1, V domains shown)
VH: QVQLVQSGAEVKKPGASVKVSCKASGYTFTSYWINWVRQAPGQGLEWIGNIFPDTTTTNYNEKFKGRVTLTRDTSISTAYMELSRLRSDDTAVYYCAREYYDGTYDAMDYWGQGTLVTVSS
VL: AIQMTQSPSSLSASVGDRVTITCKASQSVNNDVAWYQQKPGKAPKLLIYYASNRYTGVPSRFSGSGSGTDFTLTISSLQPEDFATYFCQQDYSSPRTFGQGTKLEIK
B10: hSC17.151 (antibody, human IgG1, V domains shown)
VH: QVQLVQSGAEVKKPGASVKVSCKASGYTFTSYWMHWVRQAPGQGLEWMGAIYPGKSDTTYNQKFKGRVTMTRDTSTSTVYMELSSLRSEDTAVYYCARSGKGYFAYWGQGTLVTVSS
VL: EIVLTQSPATLSLSPGERATLSCRASESVDSYGNSFMHWYQQKPGQAPRLLIYRASNLESGIPARFSGSGSGTDFTLTISSLEPEDFAVYYCQQSHEDPYTFGQGTKLEIK
B11: hSC17.156 (antibody, human IgG1, V domains shown)
VH: QVTLKESGPVLVKPTETLTLTCTVSGFSLSTSGMGVSWIRQPPGKALEWLAHIFWDDDKWYNPSLKSRLTISKDTSKSQVVLTMTNMDPVDTATYYCATFYGLYFAYWGQGTLVTVSS
VL: DIVMTQTPLSLPVTPGEPASISCRSSQSIVHSNGNTYLEWYLQKPGQSPQLLIYKVSNRFSGVPDRFSGSGSGTDFTLKISRVEAEDVGVYYCFQGSHVPPTFGGGTKLEIK
B12: hSC17.161 (antibody, human IgG1, V domains shown)
VH: QVQLVQSGAEVKKPGASVKVSCKASGFTFSDAWMDWVRQAPGQRLEWMGEIRSKPNNHATYYAESVKGRVTITRDTSASTAYMELSSLRSEDTAVYYCARTGTSYWGQGTLVTVSS
VL: DIVMTQSPDSLAVSLGERATINCESSQSLLYNSNQKNYLAWYQQKPGQPPKLLIYWASTRESGVPDRFSGSGSGTDFTLTISSLQAEDVAVYYCQQYFNYPLTFGQGTKLEIKR
B13: hSC17.200 (antibody, human IgG1, V domains shown)
VH: EVQLVQSGAEVKKPGESLKISCKGSGYSFTSSWINWVRQMPGKGLEWMGRIYPGEGDTNYSGNFEGQVTISADKSISTAYLQWSSLKASDTAMYYCTRGLVMDYWGQGTLVTVS
VL: EIVLTQSPATLSLSPGERATLSCRASQSVDYNGISYMHWYQQKPGQAPRLLIYAASNVQSGIPARFSGSGSGTDFTLTISSLEPEDFAVYYCQQSIEDPPTFGGGTKVEIK
B14: hSC17.200vL1 (antibody, V domains shown)
VH: B13 VH
VL: B13 VL with N32D
B15: hSC17.161vH1 (antibody, V domains shown)
VH: EVQLVESGGGLVQPGGSLRLSCAASGFTFSDAWMDWVRQAPGKGLEWVGEIRSKPNNHATYYAESVKGRFTISRDDSKNSLYLQMNSLKTEDTAVYYCARTGTSYWGQGTLVTVSS
VL: B12 VL

The chains behind the UniProt entries cited, without tags or fusion partners. Where a name states a change or a piece, a line headed by the entry shows the natural chain unless it says otherwise.
UniProt Q7TSK2: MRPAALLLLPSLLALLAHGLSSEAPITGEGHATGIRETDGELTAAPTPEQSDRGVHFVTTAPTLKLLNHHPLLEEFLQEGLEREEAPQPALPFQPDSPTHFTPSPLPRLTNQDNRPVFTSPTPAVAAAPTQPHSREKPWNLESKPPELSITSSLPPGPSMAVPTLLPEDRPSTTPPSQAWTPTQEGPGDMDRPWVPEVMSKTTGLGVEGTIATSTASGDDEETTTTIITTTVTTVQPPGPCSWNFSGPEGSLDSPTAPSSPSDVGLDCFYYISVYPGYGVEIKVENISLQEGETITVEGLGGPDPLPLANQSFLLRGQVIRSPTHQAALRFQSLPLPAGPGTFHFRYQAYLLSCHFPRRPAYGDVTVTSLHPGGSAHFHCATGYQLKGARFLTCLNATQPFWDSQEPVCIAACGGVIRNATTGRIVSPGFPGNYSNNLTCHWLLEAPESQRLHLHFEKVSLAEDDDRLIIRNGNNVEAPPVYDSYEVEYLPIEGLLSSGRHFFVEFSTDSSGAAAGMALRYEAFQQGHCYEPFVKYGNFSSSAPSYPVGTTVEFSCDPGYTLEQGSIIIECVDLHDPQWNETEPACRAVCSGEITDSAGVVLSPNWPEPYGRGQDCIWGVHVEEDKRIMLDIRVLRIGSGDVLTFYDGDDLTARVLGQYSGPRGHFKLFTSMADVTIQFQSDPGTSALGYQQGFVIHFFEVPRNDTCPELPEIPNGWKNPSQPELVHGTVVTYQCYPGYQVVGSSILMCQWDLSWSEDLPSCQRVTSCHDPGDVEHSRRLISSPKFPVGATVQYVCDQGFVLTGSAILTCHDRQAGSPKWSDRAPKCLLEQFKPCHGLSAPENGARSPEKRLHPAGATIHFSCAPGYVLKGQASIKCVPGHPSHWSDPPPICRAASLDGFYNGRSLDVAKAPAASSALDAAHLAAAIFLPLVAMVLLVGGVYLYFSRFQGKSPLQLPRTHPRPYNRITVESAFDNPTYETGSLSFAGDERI
UniProt Q53EL9: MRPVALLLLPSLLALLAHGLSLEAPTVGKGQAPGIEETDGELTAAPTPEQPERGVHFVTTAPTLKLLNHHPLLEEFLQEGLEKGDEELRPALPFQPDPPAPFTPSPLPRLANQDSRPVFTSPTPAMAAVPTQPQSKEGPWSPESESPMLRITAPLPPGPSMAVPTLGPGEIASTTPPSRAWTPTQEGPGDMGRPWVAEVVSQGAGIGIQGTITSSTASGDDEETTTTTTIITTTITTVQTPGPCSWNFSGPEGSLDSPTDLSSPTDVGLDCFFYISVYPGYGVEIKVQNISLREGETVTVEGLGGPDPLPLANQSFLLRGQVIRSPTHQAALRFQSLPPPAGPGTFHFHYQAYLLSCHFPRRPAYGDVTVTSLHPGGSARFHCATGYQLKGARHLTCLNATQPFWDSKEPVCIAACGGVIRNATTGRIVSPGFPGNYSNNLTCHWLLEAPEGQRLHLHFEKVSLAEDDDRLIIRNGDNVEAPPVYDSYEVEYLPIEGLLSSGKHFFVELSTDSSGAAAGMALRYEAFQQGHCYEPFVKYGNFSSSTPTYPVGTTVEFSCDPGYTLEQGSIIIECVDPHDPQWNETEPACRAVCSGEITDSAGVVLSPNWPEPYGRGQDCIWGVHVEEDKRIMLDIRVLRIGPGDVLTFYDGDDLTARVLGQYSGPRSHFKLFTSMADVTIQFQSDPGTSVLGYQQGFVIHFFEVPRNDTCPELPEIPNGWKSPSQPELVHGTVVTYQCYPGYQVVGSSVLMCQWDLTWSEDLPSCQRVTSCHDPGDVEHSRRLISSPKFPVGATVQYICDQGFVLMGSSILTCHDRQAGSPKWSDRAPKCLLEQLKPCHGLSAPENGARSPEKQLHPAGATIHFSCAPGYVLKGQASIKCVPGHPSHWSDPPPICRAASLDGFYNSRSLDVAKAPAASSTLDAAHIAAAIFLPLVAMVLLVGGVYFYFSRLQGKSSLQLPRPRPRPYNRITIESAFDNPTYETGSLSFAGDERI

Assays:
[1] = biological target: rat SEZ6 on RIN-m5F cells (rat); test: flow cytometry on RIN-m5F cells, 5 ug/mL antibody
[2] = biological target: cynomolgus SEZ6 extracellular domain displayed on yeast (cynomolgus); test: flow cytometry on yeast displaying cynomolgus SEZ6 ECD, 5 ug/mL antibody
[3] = biological target: mouse SEZ6 on Neuro2a cells (mouse) (UniProt Q7TSK2); test: flow cytometry on Neuro2a cells, 5 ug/mL antibody
[4] = biological target: human SEZ6 overexpressed on HEK-293T cells (human) (UniProt Q53EL9); test: immunohistochemistry, formalin fixed paraffin embedded cell pellets
[5] = biological target: recombinant human SEZ6 ECD with 9-Histidine tag (human) (UniProt Q53EL9); test: assay and antigen not given
[6] = biological target: recombinant human SEZ6 ECD with 9-Histidine tag (human) (UniProt Q53EL9); test: SPR, Biacore 2000; antigen not named in the paragraph

Binder | binding [5] | binding [6] | further results
B1 | – | – | binding [1]: binds; binding [2]: binds
B2 | – | – | binding [1]: binds; binding [2]: binds
B3 | – | – | binding [3]: binds; binding [2]: binds
B4 | – | – | binding [4]: binds
B5 | binds | binds | –
B6 | binds | binds | –
B7 | binds | binds | –
B8 | binds | binds | –
B9 | binds | binds | –
B10 | binds | – | –
B11 | binds | – | –
B12 | binds | – | –
B13 | binds | – | –
B14 | binds | – | –
B15 | binds | – | –

Source: patent US20170369571A1 (AbbVie / Abbott, published 2017)
